Results as given in PubChem BioAssay AID493014 (National Center for Advancing Translational Sciences (NCATS), 2011).
Values joined by “and” are separate entries in the source; they are usually repeats but may differ in a detail not shown here. Identical values can stand only once. Some of the results follow. The main result of the screen is listed elsewhere. These columns were measured beside it and carry no call. The list favours compounds with an active or inconclusive main result. Potencies come from curve fits of mixed quality, noted in brackets.

Experiment: qHTS Assay to Find Inhibitors of Chronic Active B-Cell Receptor Signaling
Settings: ABC-DLBCL IkBa-CBG/CBR reporter, luminescence ratio (green luciferase fused to IkBa over red control in TMD8 lymphoma cells), 4 h
Procedure, shortened: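 TMD8 human ABC-DLBCL cells with doxycycline-inducible IκBα–green luciferase fusion and unfused red luciferase, in 0.5% FBS medium; compounds up to 46 uM, 4 h at 37C. Green/red luminescence ratio, filter-overlap corrected, fitted to concentration-response curves.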

[1] = measured here: CBR red luminescence, cell number
[2] = measured here: IkBa-CBG green luminescence

SMILES	AC50 [1]	AC50 [2]
Cc1ccc(C(=O)Nc2nnc(C)s2)o1	6.51 µM [falling, single point]	
CCC1=NN2C(=N)/C(=C\c3cccn3-c3ccc(OC)cc3)C(=O)N=C2S1	8.91 µM [rising, partial curve, poor fit]	
CC(=O)c1nn(-c2ccc(Cl)cc2)c(=O)[nH]c1=O	1 µM [rising, full curve, poor fit]	
Nn1cnnc1N/N=C/c1cc(Br)cc(Br)c1O	35.5 µM [falling, single point]	
O=C(Nc1ccccc1Cl)c1ccc(Cl)cc1Cl	6.31 µM [rising, full curve]	
Cc1ccc(N(CC(=O)NCCSc2ccccn2)S(=O)(=O)c2ccc(F)cc2)cc1	35.5 µM [falling, single point]	
O=C(O)CCSc1nnc(-c2ccc3c(c2)OCO3)o1	1.78 µM [falling, full curve]	
Cc1ccc(S(=O)(=O)NCC(c2ccco2)S(=O)(=O)c2ccccc2)cc1 (configuration not stated)	0.731 µM [falling, full curve]	
O=c1oc2ccccc2cc1-c1cn(-c2ccccc2)c(=S)[nH]1	0.0326 µM [falling, full curve]	
N#CC1=C2SCC(O)(c3ccccc3)N2C(=O)CC1c1ccccc1F (configuration not stated)	3.26 µM [falling, partial curve, poor fit]	
COc1cc(OC)cc(C(=O)Nc2ncc3c(n2)CC(C)(C)CC3=O)c1	14.1 µM [falling, partial curve]	
O=C(c1cccc(Cl)c1)N1CCN(c2ccccn2)CC1	5.17 µM [rising, full curve, poor fit]	
CCn1c(=O)c2c(nc3n2CC(C)CN3CCc2ccccc2)n(C)c1=O (configuration not stated)	6.31 µM [falling, partial curve, poor fit]	
COc1ccc(C(=O)Nc2cccc(C(=O)N3CCN(C)CC3)c2)cc1	6.51 µM [falling, partial curve]	
N=c1oc2ccccc2cc1C(=O)N/N=C/c1ccccc1	2 µM [falling, full curve]	
COc1ccc(-c2c(-c3ccc(OC)c(C)c3O)n[nH]c2C)cc1	35.5 µM [falling, single point]	
CC(=O)Nc1ccc(NC(=O)C(C)OC(=O)c2ccccc2C(=O)c2ccc(Cl)c([N+](=O)[O-])c2)cc1 (configuration not stated)	14.6 µM [falling, single point]	
CCOc1ccc(NS(=O)(=O)c2ccc3c(c2)n(C)c(=O)n3C)cc1	15.8 µM [rising, single point]	
CCC(Oc1ccccc1)C(=O)N1CCN(C(=O)C(CC)Oc2ccccc2)CC1 (configuration not stated)	4.11 µM [rising, single point]	
CC(C)CCSc1nc2ccccc2[nH]1	1.41 µM [rising, partial curve, poor fit]	
Cc1ccc(Nc2nc(N)nc(CN3CCN(Cc4ccc5c(c4)OCO5)CC3)n2)cc1Cl	35.5 µM [falling, single point]	

SMILES	AC50 [1]	AC50 [2]
Cc1sc(NC(=O)COc2cccc(-n3cnnn3)c2)c(C#N)c1C	12.6 µM [rising, partial curve, poor fit]	
COc1ccc(C(=O)CCN2CCN(c3ccccc3OC)CC2)cc1	25.1 µM [falling, single point]	35.5 µM [rising, partial curve, poor fit]
COc1ccc(S(=O)(=O)N2CCCCC2)cc1NS(=O)(=O)c1cc(Cl)ccc1Cl	7.31 µM [rising, partial curve]	29.1 µM [falling, partial curve, poor fit]
CCn1c(SCc2cc(=O)[nH]c3ccccc23)nnc1C1CC1	23.1 µM [falling, partial curve]	
COc1cc(/C=C/C(=O)OCC(=O)Nc2cc(S(=O)(=O)N3CCCCC3)ccc2C)ccc1O	18.4 µM [falling, single point]	
CCOc1ccccc1-n1nnnc1SCC(=O)Nc1cc(C)on1	6.31 µM [rising, single point]	
CC1=CC(=C2C(=O)c3ccccc3C2=O)C=C(C)N1C	35.5 µM [falling, single point]	
Cc1cccc(-n2c(-c3cccc([N+](=O)[O-])c3)nc3nc4ccccc4nc32)c1	0.651 µM [rising, full curve, poor fit]	
CCn1c(SCC(N)=O)nnc1-c1cc2c(C)nn(-c3ccccc3)c2s1	12.6 µM [falling, partial curve]	
Cc1cccc(Nc2nnc(SCC(=O)c3ccc(Br)s3)s2)c1C	23.1 µM [falling, partial curve]	
Cc1cccc(N/N=C/c2ccncc2)c1	3.55 µM [rising, single point]	
CCOP(=O)(OCC)c1ccc2c(c1)C(=O)c1ccccc1CC2	20.6 µM [rising, single point]	
O=C1/C(=C\c2ccc(O)c(O)c2)C(c2ccccc2)=NN1c1ccccc1	12.6 µM [rising, partial curve, poor fit]	
Cn1cc(/C=N/n2cnc3scc(-c4ccc(Cl)cc4)c3c2=O)c2ccccc21		2.51 µM [falling, full curve, poor fit]
CCCCN1C(=O)/C(=C(/C#N)C(N)=O)c2ccccc21	23.1 µM [rising, single point]	29.1 µM [falling, single point]
O=C(COc1cccnc1[N+](=O)[O-])Nc1cccc(S(=O)(=O)N2CCOCC2)c1	11.2 µM [falling, partial curve, poor fit]	
CCOc1ccccc1Nc1sc(C(=O)c2ccccc2)c(N)c1C(=O)Nc1ccccc1	15.8 µM [falling, partial curve, poor fit]	
COc1ccc(S(=O)(=O)N2CCN(C(=O)c3cnc(C)cn3)CC2)cc1	0.58 µM [falling, partial curve, poor fit]	
COc1cc(/C=C2\CC/C(=C\c3cc(OC)c(O)c(OC)c3)C2=O)cc(OC)c1O	18.4 µM [falling, partial curve]	5.8 µM [rising, full curve]
COC(=O)C1=CN(Cc2ccc(OC)c(OC)c2)C=C(C(=O)OC)C1c1cccc(OC)c1OC	20 µM [rising, partial curve, poor fit]	
CCn1c(=O)c2cc(S(=O)(=O)NC3CCCCC3)ccc2n(CC)c1=O	0.184 µM [falling, full curve, poor fit]	

SMILES	AC50 [1]	AC50 [2]
CC(NCc1ccccc1Cl)C(=O)Nc1ccc(S(=O)(=O)N2CCCC2)cc1 (configuration not stated)	2.31 µM [rising, partial curve, poor fit]	
COc1cc(/C=N/NC(=O)C2C3CCCCC32C)cc(Br)c1O (configuration not stated)		25.9 µM [falling, partial curve, poor fit]
C#CCOC(=O)c1ccccc1C(=O)n1nnc2ccccc21	15.8 µM [falling, single point]	
CCCCNc1c(-c2ccc(OC)c(SC3CCCCC3)c2)nc2cc(C)ccn12	18.4 µM [falling, single point]	32.6 µM [rising, partial curve, poor fit]
CN(C1CCCC1)C1CCN(C(=O)CNC(=O)/C=C/c2ccc(F)cc2)CC1	0.92 µM [falling, full curve, poor fit]	
CC(=O)N1CCN(c2ccc(NC(=O)c3ccccc3C)cc2)CC1	11.2 µM [falling, partial curve, poor fit]	
Cc1nnc(-n2ncc(C#N)c2N)c2nn(-c3cccc(Cl)c3)c(C)c12	18.4 µM [rising, single point]	
CCCCOP(=O)(OCCCC)C(O)c1ccc(N(C)C)cc1 (configuration not stated)	35.5 µM [rising, single point]	
CCC(=O)Nc1ccc(C(=O)NNC(=O)c2ccc(C)cc2)cc1	15.8 µM [rising, partial curve, poor fit]	
OC(CN=c1sc2ccccc2n1CC(O)COc1ccccc1)COc1ccccc1 (configuration not stated)	20.6 µM [falling, partial curve]	
O=C(NCc1ccco1)Nc1ccc2snnc2c1	35.5 µM [falling, single point]	
O=[N+]([O-])c1cc(S(=O)(=O)NCCN2CCOCC2)ccc1Cl	10 µM [falling, single point]	
CC1CCN(S(=O)(=O)c2ccc(C(=O)N3CCN(c4ccccc4F)CC3)cc2)CC1	28.2 µM [falling, single point]	
Cn1nc(C(=O)OCc2ccc(F)cc2)c2ccccc2c1=O	11.2 µM [rising, partial curve, poor fit]	
CCOC(=O)C1(CCOc2ccccc2)CCN(Cc2ccc(OC)c(O)c2)CC1	11.2 µM [falling, partial curve, poor fit]	
Cc1ccccc1CNc1ccc(C(CC(N)=O)NC(=O)c2ccccc2)cc1[N+](=O)[O-] (configuration not stated)	35.5 µM [falling, single point]	
CCOc1c(C)cc(-c2ncccc2O)cc1C	461 nM [rising, full curve, poor fit] and 11.2 µM [rising, partial curve]	
Cc1cccnc1NC(=S)Nc1ncccc1C	3.16 µM [rising, partial curve, poor fit]	
Oc1ccc(-c2cn3ccccc3n2)cc1O	6.31 µM [rising, single point]	
COC(=O)c1ccccc1NC(=O)CSc1nncn1-c1cccnc1	35.5 µM [falling, single point]	
